Measured values as given in PMC12412611.
These are yes or no findings as the source states them, for the method shown. Binding seen in cells or lysates may run through a third protein. Some entries that bind do so weakly or less than the wild type. Where a sequence is shown, tags or fusion partners need not be part of it.

Sequences of proteins named here, by UniProt entry; tags and fusion partners are left off.
UniProt Q96CV9: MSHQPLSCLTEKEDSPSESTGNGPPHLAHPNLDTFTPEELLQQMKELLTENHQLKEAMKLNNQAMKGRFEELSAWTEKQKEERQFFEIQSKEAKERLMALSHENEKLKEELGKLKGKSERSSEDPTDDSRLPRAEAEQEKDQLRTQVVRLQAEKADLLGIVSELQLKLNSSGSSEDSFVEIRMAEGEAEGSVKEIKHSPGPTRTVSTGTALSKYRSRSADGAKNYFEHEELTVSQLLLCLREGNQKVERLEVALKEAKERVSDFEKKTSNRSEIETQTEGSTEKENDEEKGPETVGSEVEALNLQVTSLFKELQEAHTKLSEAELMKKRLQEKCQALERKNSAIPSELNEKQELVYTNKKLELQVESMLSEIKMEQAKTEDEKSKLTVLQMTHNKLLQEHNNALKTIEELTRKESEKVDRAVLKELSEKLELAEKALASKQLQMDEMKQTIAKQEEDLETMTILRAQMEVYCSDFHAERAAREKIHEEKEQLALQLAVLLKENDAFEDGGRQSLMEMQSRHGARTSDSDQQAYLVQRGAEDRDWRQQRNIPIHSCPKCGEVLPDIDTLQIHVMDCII

Experiments:
[1] = molecular target: T1, TBK1 (tank-binding kinase), overexpressed, tag not told for these experiments (UniProt Q9UHD2); assay: co-IP; HEK293T co-transfected with the plasmids; IP lysis buffer with PMSF; anti-Flag beads at 4 °C overnight; immunoblot; some panels with CQ (40 µM, 6 h) and with or without co-expressed GSDMD-CT
T1 sequence: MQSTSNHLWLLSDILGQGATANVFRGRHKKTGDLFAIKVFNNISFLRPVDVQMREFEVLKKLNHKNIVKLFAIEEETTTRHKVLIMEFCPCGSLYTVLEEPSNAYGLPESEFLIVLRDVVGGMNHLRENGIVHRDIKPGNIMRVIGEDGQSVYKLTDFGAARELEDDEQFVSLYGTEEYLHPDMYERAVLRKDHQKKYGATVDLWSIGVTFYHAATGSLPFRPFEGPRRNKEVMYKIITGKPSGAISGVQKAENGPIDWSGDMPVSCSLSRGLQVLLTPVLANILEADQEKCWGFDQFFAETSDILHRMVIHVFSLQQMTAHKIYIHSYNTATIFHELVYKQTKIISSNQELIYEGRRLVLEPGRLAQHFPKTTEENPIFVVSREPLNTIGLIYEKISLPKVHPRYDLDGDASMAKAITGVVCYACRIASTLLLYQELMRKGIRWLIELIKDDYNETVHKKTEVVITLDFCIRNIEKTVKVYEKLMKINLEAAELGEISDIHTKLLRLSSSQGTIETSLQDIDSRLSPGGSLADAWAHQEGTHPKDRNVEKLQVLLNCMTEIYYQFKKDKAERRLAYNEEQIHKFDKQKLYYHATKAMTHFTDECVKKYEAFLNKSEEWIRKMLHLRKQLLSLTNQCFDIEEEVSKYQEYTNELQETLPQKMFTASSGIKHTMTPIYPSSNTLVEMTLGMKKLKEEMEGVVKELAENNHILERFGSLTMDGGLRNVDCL

[2] = molecular target: T2, RIG-I (retinoic acid-inducible gene I), overexpressed, tag not told for these experiments (UniProt O95786); assay: as above
T2 sequence: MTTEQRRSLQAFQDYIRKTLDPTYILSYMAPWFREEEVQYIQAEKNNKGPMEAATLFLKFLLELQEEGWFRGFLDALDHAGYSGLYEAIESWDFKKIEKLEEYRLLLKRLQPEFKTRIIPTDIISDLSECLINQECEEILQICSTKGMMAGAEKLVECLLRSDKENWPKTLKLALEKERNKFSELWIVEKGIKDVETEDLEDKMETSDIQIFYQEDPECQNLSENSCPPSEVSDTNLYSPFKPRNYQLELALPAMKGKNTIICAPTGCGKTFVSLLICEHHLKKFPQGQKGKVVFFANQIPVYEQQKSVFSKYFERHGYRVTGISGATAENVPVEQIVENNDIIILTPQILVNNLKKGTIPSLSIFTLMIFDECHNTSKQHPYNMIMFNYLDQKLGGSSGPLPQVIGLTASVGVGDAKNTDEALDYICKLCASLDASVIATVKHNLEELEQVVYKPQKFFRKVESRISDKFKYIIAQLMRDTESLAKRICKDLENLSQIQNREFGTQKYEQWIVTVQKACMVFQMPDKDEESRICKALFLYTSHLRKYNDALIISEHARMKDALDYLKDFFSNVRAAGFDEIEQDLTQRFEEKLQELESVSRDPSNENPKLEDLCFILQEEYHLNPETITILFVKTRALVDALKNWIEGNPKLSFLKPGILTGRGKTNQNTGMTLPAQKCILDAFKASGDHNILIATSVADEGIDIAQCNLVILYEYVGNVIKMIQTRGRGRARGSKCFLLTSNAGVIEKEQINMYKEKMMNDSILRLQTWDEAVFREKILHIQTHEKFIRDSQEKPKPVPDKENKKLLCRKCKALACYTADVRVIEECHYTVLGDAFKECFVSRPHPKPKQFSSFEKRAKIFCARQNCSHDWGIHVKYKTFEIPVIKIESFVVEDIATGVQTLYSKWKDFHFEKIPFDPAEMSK

| binding [1] | binding [2] | Substance |
| --- | --- | --- |
| binds | – | p62/SQSTM1 (from UniProt Q13501 1-440) |
| binds | binds | OPTN (from UniProt Q96CV9 1-577) |
